{"source": "paper PMC11374660", "about": "“The novel family of Warbicin® compounds inhibits glucose uptake both in yeast and human cells and restrains cancer cell proliferation” (Frontiers in Oncology, 2024)", "biological_target": "T1, Hxt7-NCitr (Hxt7 fused to the N-terminal part of Citrine) (S. cerevisiae) (UniProt P39004)", "T1 sequence": "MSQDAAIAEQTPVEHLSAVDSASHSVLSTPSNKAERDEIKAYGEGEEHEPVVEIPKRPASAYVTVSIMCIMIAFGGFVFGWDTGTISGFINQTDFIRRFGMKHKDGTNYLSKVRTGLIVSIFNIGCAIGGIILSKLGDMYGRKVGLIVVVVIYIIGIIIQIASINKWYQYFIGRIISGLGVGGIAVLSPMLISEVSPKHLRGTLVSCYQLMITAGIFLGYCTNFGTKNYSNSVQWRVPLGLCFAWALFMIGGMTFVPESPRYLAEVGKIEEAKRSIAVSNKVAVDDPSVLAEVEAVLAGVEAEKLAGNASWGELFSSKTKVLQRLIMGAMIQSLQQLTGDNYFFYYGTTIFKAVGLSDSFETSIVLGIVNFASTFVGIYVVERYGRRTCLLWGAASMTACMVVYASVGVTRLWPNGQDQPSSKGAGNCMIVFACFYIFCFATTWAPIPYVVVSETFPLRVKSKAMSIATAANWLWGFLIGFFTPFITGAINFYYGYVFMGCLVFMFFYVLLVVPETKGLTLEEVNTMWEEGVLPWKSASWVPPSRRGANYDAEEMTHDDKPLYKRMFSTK", "assay": "split reporter; BiFC with split Citrine halves (NCitr 1-154, CCitr 155-236) in living yeast cells, confocal fluorescence microscopy; cells (pre)grown on YP with 325 mM glycerol and 430 mM ethanol", "note": "Results are given in words; binding and its absence hold for the method and conditions named. In cells and extracts the contact can be indirect. Sequences can lack the tags named with a protein."}
{"substance": "C-terminal part of Citrine expressed freely in the cytosol (CCitr) (domain or fragment)", "values": [{"measurement": "binding", "result": "no binding"}]}
